For this test, the target named is Ste5-Myc9 (S. cerevisiae) (UniProt P32917). As to the kind of experiment: affinity purification with mass spectrometry; Ste5-Myc9 IP'd with 9E10 from 10 mg yeast whole cell extract (EY1775, cells without or with 50 nM α factor for 2 hours); 20 mM Tris-HCl pH 7.2, 125 mM potassium acetate, 0.1% Tween 20; Coomassie-stained SDS gel, 70 kDa band digested with trypsin, LC-MS/MS; ImageJ densitometry of the gel.

By UniProt entry, the sequences of proteins in these tests, tags left out.
UniProt P32917: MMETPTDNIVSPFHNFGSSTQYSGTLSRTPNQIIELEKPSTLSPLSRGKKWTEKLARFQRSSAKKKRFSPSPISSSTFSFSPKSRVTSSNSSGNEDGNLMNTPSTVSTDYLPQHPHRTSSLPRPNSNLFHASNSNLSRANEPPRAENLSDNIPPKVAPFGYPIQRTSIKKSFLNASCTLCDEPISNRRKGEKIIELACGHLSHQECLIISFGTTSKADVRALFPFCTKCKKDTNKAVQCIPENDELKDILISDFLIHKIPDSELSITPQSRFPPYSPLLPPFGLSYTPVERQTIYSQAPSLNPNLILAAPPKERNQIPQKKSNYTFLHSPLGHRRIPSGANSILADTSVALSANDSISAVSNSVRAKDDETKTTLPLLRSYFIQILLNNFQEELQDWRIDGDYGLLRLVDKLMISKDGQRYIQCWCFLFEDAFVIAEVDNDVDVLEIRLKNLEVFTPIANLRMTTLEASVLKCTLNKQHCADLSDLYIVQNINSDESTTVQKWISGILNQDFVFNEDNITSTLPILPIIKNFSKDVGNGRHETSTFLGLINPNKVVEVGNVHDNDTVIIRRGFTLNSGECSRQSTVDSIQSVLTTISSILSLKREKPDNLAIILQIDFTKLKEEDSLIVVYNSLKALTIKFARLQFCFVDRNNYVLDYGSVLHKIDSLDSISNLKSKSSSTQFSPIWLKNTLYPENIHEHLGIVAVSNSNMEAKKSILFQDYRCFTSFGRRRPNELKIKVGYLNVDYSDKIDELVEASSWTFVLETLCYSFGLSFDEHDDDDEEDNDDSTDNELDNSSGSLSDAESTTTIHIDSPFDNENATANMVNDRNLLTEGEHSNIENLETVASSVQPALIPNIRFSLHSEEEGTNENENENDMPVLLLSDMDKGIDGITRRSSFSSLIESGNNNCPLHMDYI
UniProt P10591: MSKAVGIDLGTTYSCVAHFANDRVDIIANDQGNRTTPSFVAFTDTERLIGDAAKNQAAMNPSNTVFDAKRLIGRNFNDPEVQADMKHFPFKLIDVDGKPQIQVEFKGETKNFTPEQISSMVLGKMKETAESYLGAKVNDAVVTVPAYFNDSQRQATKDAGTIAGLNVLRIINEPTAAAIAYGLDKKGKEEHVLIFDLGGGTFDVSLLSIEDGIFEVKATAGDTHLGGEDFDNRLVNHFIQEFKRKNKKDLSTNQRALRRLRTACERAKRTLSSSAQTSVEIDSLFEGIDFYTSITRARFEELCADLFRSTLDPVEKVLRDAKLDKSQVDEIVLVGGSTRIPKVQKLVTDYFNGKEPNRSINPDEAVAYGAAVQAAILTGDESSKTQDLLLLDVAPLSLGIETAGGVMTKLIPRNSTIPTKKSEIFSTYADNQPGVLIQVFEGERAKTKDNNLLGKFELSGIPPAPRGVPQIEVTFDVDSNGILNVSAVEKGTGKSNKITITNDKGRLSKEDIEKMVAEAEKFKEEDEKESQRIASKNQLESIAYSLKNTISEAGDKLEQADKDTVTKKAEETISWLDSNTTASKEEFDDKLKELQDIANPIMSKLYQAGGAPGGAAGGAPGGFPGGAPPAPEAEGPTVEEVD

No constants are given. Whether binding was seen depends on the method and setting. Binding seen in cells or lysates may run through a third protein. These calls come from enrichment with a bait or labelling near it, and not all partners need be listed.

Turning to “Hsp70 Ssa1 (endogenous) (from UniProt P10591 1-642)”, the binding result is “binds”.

The values are drawn from publication PMC10584130.
